Some results were stated once for a whole list of compounds, not compound by compound.
Experiments:
Alternaria solani = experiment: Green house: preventative fungicidal control of early blight on tomatoes (Alteso P1); format: in vivo, Alternaria solani on tomato; details: 300 ppm, sprayed 1 day before inoculation; untreated plants 90% infected
Phakopsora pachyrhizi = experiment: Green house: curative control of soy bean rust on soy beans caused by Phakopsora pachyrhizi (Phakpa K4); format: in vivo; details: 250 ppm, sprayed 4 days after inoculation; untreated plants 70% infected
Leptosphaeria nodorum = experiment: Microtest: activity against wheat leaf spots caused by Leptosphaeria nodorum (Leptno); format: cell-based; details: 32 ppm; relative growth vs control (100%), 7 days after inoculation
Septoria tritici = experiment: Green house: preventative control of leaf blotch on wheat caused by Septoria tritici (Septtr P7); format: in vivo; details: 250 ppm, sprayed 7 days before inoculation; untreated plants 70% infected
Puccinia recondita = experiment: Green house: preventative control of brown rust on wheat caused by Puccinia recondita (Puccrt P7); format: in vivo; details: 250 ppm, sprayed 7 days before inoculation; untreated plants 90% infected
Botrytis cinerea = experiment: Microtiterplate test: activity against the grey mold Botrytis cinerea (Botrci); format: cell-based; details: 32 ppm; relative growth vs control (100%), 7 days after inoculation

Row | SMILES | infection (% diseased leaf area) Alteso P1 (Alternaria solani) | infection (% diseased leaf area) Phakpa K4 (Phakopsora pachyrhizi) | growth (%) Leptno (Leptosphaeria nodorum) [%] | infection (% diseased leaf area) Septtr P7 (Septoria tritici) | infection (% diseased leaf area) Puccrt P7 (Puccinia recondita) | growth (%) Botrci (Botrytis cinerea) [%]
1 | C=CCOC(Cn1cncn1)(c1ccc(Oc2ccc(Cl)cc2)cc1Cl)C1CC1 (centres unmarked) [I-2] | less than or equal to 10% | less than or equal to 10% | ≤ 7 | less than or equal to 1% | less than or equal to 3% | 
2 | CCOC(Cn1cncn1)(c1ccc(Oc2ccc(Cl)cc2)cc1Cl)C1CC1 (centres unmarked) [I-3] | less than or equal to 10% | less than or equal to 10% | ≤ 7 | less than or equal to 1% | less than or equal to 3% | ≤ 10
3 | C#CCOC(Cn1cncn1)(c1ccc(Oc2ccc(Cl)cc2)cc1Cl)C1CC1 (centres unmarked) [I-4] | less than or equal to 10% | less than or equal to 10% | ≤ 7 | less than or equal to 1% | less than or equal to 3% | ≤ 10
4 | Clc1ccc(Oc2ccc(C(Cn3cncn3)(OCc3ccccc3)C3CC3)c(Cl)c2)cc1 (centres unmarked) [I-5] |  | less than or equal to 10% | ≤ 7 | less than or equal to 1% | less than or equal to 3% | ≤ 10
5 | Clc1ccc(Oc2ccc(C(Cn3cncn3)(OCC3CC3)C3CC3)c(Cl)c2)cc1 (centres unmarked) [I-6] | less than or equal to 10% |  | ≤ 7 | less than or equal to 1% | less than or equal to 3% | 
